# Patent US20260184786A1 (LINDIS BIOTECH, published 2026)
# The chains behind the UniProt entries cited, without tags or fusion partners. Where a name states a change or a piece, a line headed by the entry shows the natural chain unless it says otherwise. Residues count along the entry.
# UniProt P02769, residues 25-607: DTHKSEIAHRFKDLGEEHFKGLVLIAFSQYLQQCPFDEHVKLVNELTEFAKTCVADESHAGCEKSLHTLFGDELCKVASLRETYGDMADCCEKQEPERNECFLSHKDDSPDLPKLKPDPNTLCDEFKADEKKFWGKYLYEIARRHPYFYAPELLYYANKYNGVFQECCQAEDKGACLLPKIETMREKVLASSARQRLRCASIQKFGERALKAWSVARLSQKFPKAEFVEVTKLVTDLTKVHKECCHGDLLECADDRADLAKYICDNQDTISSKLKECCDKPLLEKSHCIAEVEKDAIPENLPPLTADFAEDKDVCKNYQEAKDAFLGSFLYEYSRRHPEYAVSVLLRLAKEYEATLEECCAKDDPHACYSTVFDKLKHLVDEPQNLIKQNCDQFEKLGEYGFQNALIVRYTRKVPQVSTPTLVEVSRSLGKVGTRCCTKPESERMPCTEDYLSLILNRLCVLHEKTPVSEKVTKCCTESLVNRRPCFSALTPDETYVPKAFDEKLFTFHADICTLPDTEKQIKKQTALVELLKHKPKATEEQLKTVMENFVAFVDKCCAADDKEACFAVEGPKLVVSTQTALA
# UniProt P07766: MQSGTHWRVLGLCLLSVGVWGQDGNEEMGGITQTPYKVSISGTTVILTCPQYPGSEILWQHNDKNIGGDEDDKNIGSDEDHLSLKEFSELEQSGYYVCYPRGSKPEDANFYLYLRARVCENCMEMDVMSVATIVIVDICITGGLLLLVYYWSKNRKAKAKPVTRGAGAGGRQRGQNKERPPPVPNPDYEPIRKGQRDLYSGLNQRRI
# UniProt P09693: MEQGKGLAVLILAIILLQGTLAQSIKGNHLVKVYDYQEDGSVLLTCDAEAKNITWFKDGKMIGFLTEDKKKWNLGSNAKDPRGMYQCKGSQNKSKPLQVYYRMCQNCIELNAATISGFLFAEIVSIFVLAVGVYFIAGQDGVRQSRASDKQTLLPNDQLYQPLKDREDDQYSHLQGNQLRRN
# UniProt P04234: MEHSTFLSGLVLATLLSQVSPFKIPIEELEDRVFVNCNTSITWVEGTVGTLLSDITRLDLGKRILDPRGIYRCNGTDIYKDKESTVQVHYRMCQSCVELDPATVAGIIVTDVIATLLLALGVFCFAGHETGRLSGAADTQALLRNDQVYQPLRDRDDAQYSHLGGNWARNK
# No constants are given. Whether binding was seen depends on the method and setting. Some binding calls cover weakened binding; strength is not graded here.
# How the values were obtained:
# [1] = target: BSA (bovine) (UniProt P02769); assay: ELISA of Example 2, curve labelled BSA in the panel's legend box
# [2] = target: T1, Human CD3E & CD3G (human, UniProt P07766;P09693); assay: ELISA, plate coated with CD3E & CD3G heterodimer protein (100 ng/well), anti-His tag HRP detection (Example 2)
# T1 construct: recombinant, tag given as Lama Fc; also called CD3E & CD3G heterodimer protein; CD3E/G antigen
# [3] = target: T2, CD3 on Jurkat cells (human, UniProt P07766;P09693;P04234); assay: flow cytometry on Jurkat cells, FITC-labelled secondary antibody, MFI (Example 3)
# T2 construct: on the surface of Jurkat cells
Binder,binding [1],binding [2],binding [3]
"VH_V2_VL_V5 (antibody, V domains shown) VH: EVQLVESGGGLVQPGRSLRLSCAASGFTFNNYWMSWVRQAPGKGLEWVSAITKTGGSTYYPDSVKGRFTISRDNSKSTLYLQMNSLRAEDTATYYCTREYYYDPYIDYWGQGVLVTVSS VL: QSALTQPRSVSGSPGQSVTISCTRTTGNIGSNYVNWYQQHPGKAPKTMIYRDDKRPSGVPDRFSGSIDSSSNTASLTISGLQAEDEADYYCQSYSSGINIFGGGTKLTVL",no binding (tested: 10 µg/ml),binds,–
"VH_V3_VL_V5 (antibody, V domains shown) VH: EVQLVESGGGLVQPGRSLRLSCAASGFTFNNYWMSWVRQAPGKGLEWVASITKTGGSTYYPDSVKGRFTISRDNAKSTLYLQMNSLRSEDTATYYCTREYYYDPYIDYWGQGVLVTVSS VL: QSALTQPRSVSGSPGQSVTISCTRTTGNIGSNYVNWYQQHPGKAPKTMIYRDDKRPSGVPDRFSGSIDSSSNTASLTISGLQAEDEADYYCQSYSSGINIFGGGTKLTVL",no binding (tested: 10 µg/ml),binds,–
"VH_V4_VL_V2 (antibody, V domains shown) VH: EVQLVESGGGLVQPGGSLRLSCAASGFTFNNYWMTWIRQAPGKGLEWVASITKTGGSTYYPDSVKGRFTISRDNSKSTLYLQMNSLRAEDTAVYYCTREYYYDPYIDYWGQGTLVTVSS VL: QFALTQPRSVSGNLGSSVKISCKRTTGNIGSNYVNWYQQHEGKAPTTMIYRDDKRPDGVPDRFSGSKDRSGNTALLTINNLQTEDEADYYCQSYSSGINIFGGGTKLTVL",no binding (tested: 10 µg/ml),binds,–
"C3002HC-SLV1 (antibody, V domains shown) VH: EVQLVESGGGLVQPGGSLRLSCAASGFTFNNYWMTWIRQAPGKGLEWVASITKTGGSTYYPDSVKGRFTISRDNAKNSLYLQMNSLRAEDTAVYYCTREYYYDPYIDYWGQGTMVTVSS VL: NFMLTQPHSVSESPGKTVTISCTRSTGNIGSNYVQWYQQRPGSSPTTVIYRDDQRPSGVPDRFSGSIDSSSNSASLTISGLKTEDEADYYCQSYSSGINIFGGGTKLTVL",–,–,binds
"C3002HC-LV4 (antibody, V domains shown) VH: EVQLVESGGGLVQPGGSLRLSCAASGFTFNNYWMTWIRQAPGKGLEWVASITKTGGSTYYPDSVKGRFTISRDNAKNSLYLQMNSLRAEDTAVYYCTREYYYDPYIDYWGQGTMVTVSS VL: QFALTQPRSVSGSLGQSVTLSCTRTTGNIGSNYVNWYQQHEGKAPKTMIYRDDKRPSGVPDRFSGSIDRSSNTASLTISGVQAEDEADYYCQSYSSGINIFGGGTKLTVL",–,–,binds
"C3002-2-HC-LV4 (antibody, V domains shown) VH: EVQLVESGGGLVQPGGSLRLSCAASGFTFNNYWMTWIRQAPGKGLEWVASITKTGGSTYYPDSVKGRFTISRDNAKNSLYLQMNSLRAEDTATYYCTREYYYDPYIDYWGQGVMVTVSS VL: QFALTQPRSVSGSLGQSVTLSCTRTTGNIGSNYVNWYQQHEGKAPKTMIYRDDKRPSGVPDRFSGSIDRSSNTASLTISGVQAEDEADYYCQSYSSGINIFGGGTKLTVL",–,–,binds
"C3002-2-HC-SLV1 (antibody, V domains shown) VH: EVQLVESGGGLVQPGGSLRLSCAASGFTFNNYWMTWIRQAPGKGLEWVASITKTGGSTYYPDSVKGRFTISRDNAKNSLYLQMNSLRAEDTATYYCTREYYYDPYIDYWGQGVMVTVSS VL: NFMLTQPHSVSESPGKTVTISCTRSTGNIGSNYVQWYQQRPGSSPTTVIYRDDQRPSGVPDRFSGSIDSSSNSASLTISGLKTEDEADYYCQSYSSGINIFGGGTKLTVL",–,–,binds
"SHV1-LV4 (antibody, V domains shown) VH: EVQLVESGGGLVQPGGSLRLSCAASGFTFNNYWMSWVRQAPGKGLEWVANITKTGGSTYYVDSVKGRFTISRDNAKNSLYLQMNSLRAEDTAVYYCTREYYYDPYIDYWGQGTMVTVSS VL: QFALTQPRSVSGSLGQSVTLSCTRTTGNIGSNYVNWYQQHEGKAPKTMIYRDDKRPSGVPDRFSGSIDRSSNTASLTISGVQAEDEADYYCQSYSSGINIFGGGTKLTVL",–,–,binds
"HV1-SLV1 (antibody, V domains shown) VH: EVQLVESGGGLVQPGGSLRLSCAASGFTFNNYWMSWVRQAPGKGLEWVSAITKTGGSTYYADSVKGRFTISRDNSKNTLYLQMNSLRAEDTAVYYCTREYYYDPYIDYWGQGTLVTVSS VL: NFMLTQPHSVSESPGKTVTISCTRSTGNIGSNYVQWYQQRPGSSPTTVIYRDDQRPSGVPDRFSGSIDSSSNSASLTISGLKTEDEADYYCQSYSSGINIFGGGTKLTVL",–,–,binds
"HV2-SLV1 (antibody, V domains shown) VH: EVQLVESGGGLVQPGRSLRLSCAASGFTFNNYWMSWVRQAPGKGLEWVSAITKTGGSTYYPDSVKGRFTISRDNSKSTLYLQMNSLRAEDTATYYCTREYYYDPYIDYWGQGVLVTVSS VL: NFMLTQPHSVSESPGKTVTISCTRSTGNIGSNYVQWYQQRPGSSPTTVIYRDDQRPSGVPDRFSGSIDSSSNSASLTISGLKTEDEADYYCQSYSSGINIFGGGTKLTVL",–,–,binds
"HV3-SLV1 (antibody, V domains shown) VH: EVQLVESGGGLVQPGRSLRLSCAASGFTFNNYWMSWVRQAPGKGLEWVASITKTGGSTYYPDSVKGRFTISRDNAKSTLYLQMNSLRSEDTATYYCTREYYYDPYIDYWGQGVLVTVSS VL: NFMLTQPHSVSESPGKTVTISCTRSTGNIGSNYVQWYQQRPGSSPTTVIYRDDQRPSGVPDRFSGSIDSSSNSASLTISGLKTEDEADYYCQSYSSGINIFGGGTKLTVL",–,–,binds
"VH_V1_VL_V1 (antibody, V domains shown) VH: EVQLVESGGGLVQPGGSLRLSCAASGFTFNNYWMSWVRQAPGKGLEWVSAITKTGGSTYYADSVKGRFTISRDNSKNTLYLQMNSLRAEDTAVYYCTREYYYDPYIDYWGQGTLVTVSS VL: QSALTQPRSVSGSPGQSVTISCTGTTGNIGSNYVSWYQQHPGKAPKLMIYRDDKRPSGVPDRFSGSKSGNTASLTISGLQAEDEADYYCQSYSSGINIFGGGTKLTVL",no binding (tested: 10 µg/ml),binds,–
"HV4-SLV1 (antibody, V domains shown) VH: EVQLVESGGGLVQPGGSLRLSCAASGFTFNNYWMTWIRQAPGKGLEWVASITKTGGSTYYPDSVKGRFTISRDNSKSTLYLQMNSLRAEDTAVYYCTREYYYDPYIDYWGQGTLVTVSS VL: NFMLTQPHSVSESPGKTVTISCTRSTGNIGSNYVQWYQQRPGSSPTTVIYRDDQRPSGVPDRFSGSIDSSSNSASLTISGLKTEDEADYYCQSYSSGINIFGGGTKLTVL",–,–,binds
"VH_V1_VL_V2 (antibody, V domains shown) VH: EVQLVESGGGLVQPGGSLRLSCAASGFTFNNYWMSWVRQAPGKGLEWVSAITKTGGSTYYADSVKGRFTISRDNSKNTLYLQMNSLRAEDTAVYYCTREYYYDPYIDYWGQGTLVTVSS VL: QFALTQPRSVSGNLGSSVKISCKRTTGNIGSNYVNWYQQHEGKAPTTMIYRDDKRPDGVPDRFSGSKDRSGNTALLTINNLQTEDEADYYCQSYSSGINIFGGGTKLTVL",no binding (tested: 10 µg/ml),–,–
"VH_V2_VL_V1 (antibody, V domains shown) VH: EVQLVESGGGLVQPGRSLRLSCAASGFTFNNYWMSWVRQAPGKGLEWVSAITKTGGSTYYPDSVKGRFTISRDNSKSTLYLQMNSLRAEDTATYYCTREYYYDPYIDYWGQGVLVTVSS VL: QSALTQPRSVSGSPGQSVTISCTGTTGNIGSNYVSWYQQHPGKAPKLMIYRDDKRPSGVPDRFSGSKSGNTASLTISGLQAEDEADYYCQSYSSGINIFGGGTKLTVL",no binding (tested: 10 µg/ml),–,–
"VH_V2_VL_V2 (antibody, V domains shown, also called HV2-LV2) VH: EVQLVESGGGLVQPGRSLRLSCAASGFTFNNYWMSWVRQAPGKGLEWVSAITKTGGSTYYPDSVKGRFTISRDNSKSTLYLQMNSLRAEDTATYYCTREYYYDPYIDYWGQGVLVTVSS VL: QFALTQPRSVSGNLGSSVKISCKRTTGNIGSNYVNWYQQHEGKAPTTMIYRDDKRPDGVPDRFSGSKDRSGNTALLTINNLQTEDEADYYCQSYSSGINIFGGGTKLTVL",no binding (tested: 10 µg/ml),–,–
"VH_V3_VL_V2 (antibody, V domains shown, also called HV3-LV2) VH: EVQLVESGGGLVQPGRSLRLSCAASGFTFNNYWMSWVRQAPGKGLEWVASITKTGGSTYYPDSVKGRFTISRDNAKSTLYLQMNSLRSEDTATYYCTREYYYDPYIDYWGQGVLVTVSS VL: QFALTQPRSVSGNLGSSVKISCKRTTGNIGSNYVNWYQQHEGKAPTTMIYRDDKRPDGVPDRFSGSKDRSGNTALLTINNLQTEDEADYYCQSYSSGINIFGGGTKLTVL",no binding (tested: 10 µg/ml),–,–
"VH_V3_VL_V1 (antibody, V domains shown, also called HV3-LV1) VH: EVQLVESGGGLVQPGRSLRLSCAASGFTFNNYWMSWVRQAPGKGLEWVASITKTGGSTYYPDSVKGRFTISRDNAKSTLYLQMNSLRSEDTATYYCTREYYYDPYIDYWGQGVLVTVSS VL: QSALTQPRSVSGSPGQSVTISCTGTTGNIGSNYVSWYQQHPGKAPKLMIYRDDKRPSGVPDRFSGSKSGNTASLTISGLQAEDEADYYCQSYSSGINIFGGGTKLTVL",no binding (tested: 10 µg/ml),–,–
"VH_V4_VL_V1 (antibody, V domains shown, also called HV4-LV1) VH: EVQLVESGGGLVQPGGSLRLSCAASGFTFNNYWMTWIRQAPGKGLEWVASITKTGGSTYYPDSVKGRFTISRDNSKSTLYLQMNSLRAEDTAVYYCTREYYYDPYIDYWGQGTLVTVSS VL: QSALTQPRSVSGSPGQSVTISCTGTTGNIGSNYVSWYQQHPGKAPKLMIYRDDKRPSGVPDRFSGSKSGNTASLTISGLQAEDEADYYCQSYSSGINIFGGGTKLTVL",no binding (tested: 10 µg/ml),–,–
"VH_V4_VL_V5 (antibody, V domains shown) VH: EVQLVESGGGLVQPGGSLRLSCAASGFTFNNYWMTWIRQAPGKGLEWVASITKTGGSTYYPDSVKGRFTISRDNSKSTLYLQMNSLRAEDTAVYYCTREYYYDPYIDYWGQGTLVTVSS VL: QSALTQPRSVSGSPGQSVTISCTRTTGNIGSNYVNWYQQHPGKAPKTMIYRDDKRPSGVPDRFSGSIDSSSNTASLTISGLQAEDEADYYCQSYSSGINIFGGGTKLTVL",no binding (tested: 10 µg/ml),–,–
